# From the supplement of paper PMC5407854, “Inhibitor of ppGalNAc-T3-mediated O-glycosylation blocks cancer cell invasiveness and lowers FGF23 levels” (eLife, 2017)
# Some of the results follow. Small differences around the control level are noise.
# Key:
# [1] = test system: ppGalNAc-T3 sensor; test: T3 sensor activation Q score (MG/GFP ratio z-score vs DMSO controls) (SD units); higher = more sensor activation (inhibition of ppGalNAc-T3 glycosylation); conditions: HEK293 sensor cells; 10 µM; 6 h
# Description: (§1)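 Cells were treated with compound at 10 uM for 6 h, then MG/GFP ratio was read by flow cytometry (10,000 cells per well, duplicate wells). Q = (R - R_neg)/SD_neg relative to DMSO vehicle controls; the signal rises when the glycosyltransferase is inhibited.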
# [2] = test system: ppGalNAc-T2 sensor; test: T2 sensor activation Q score (MG/GFP ratio z-score vs DMSO controls) (SD units); higher = more sensor activation (inhibition of ppGalNAc-T2 glycosylation); conditions: HEK293 sensor cells; 10 µM; 6 h
# Description: as §1
SMILES,T3 sensor activation Q score [1],T2 sensor activation Q score [2]
CCOc1ccc(N2C(=O)CC(N3CCCC3)C2=O)cc1 (stereo not drawn),-0.43,0.505
O=C1CCCc2sc([N+](=O)[O-])cc21,0.24,0.07
Fc1cccc(CN2CCOCC2)c1,0.91,0.055
COc1ccc(/C=C(/NC(=O)c2ccco2)C(=O)Nc2ccc(Cl)cc2)cc1,-1,-1.06
CN1CCN(C(=O)Nc2ccccc2)CC1,0.425,-0.72
Cc1cccc(NC(=O)c2ccco2)c1,-1.01,-1.61
CN1CCN(S(=O)(=O)c2ccc(C(=O)O)cc2)CC1,-0.25,0.555
CCCc1cc2ccccc2o1,0.1,-0.49
COc1ccc(C(=O)N2CCN(C(=O)c3ccco3)CC2)cc1,0.71,-1.33
O=C(CCCOc1ccc(Cl)cc1Cl)NO,-0.585,0.45
COc1ccc(CN2CCN(C/C=C/c3ccccc3)CC2)c(O)c1,0.345,-0.83
COc1cc(N)c(Cl)cc1NC(=O)c1ccccc1,-0.74,-0.88
OC1CSc2nc3ccccc3n2C1 (stereo not drawn),0.405,-0.9
O=C(C1CCCO1)N1CCN(c2cccc(Cl)c2)CC1 (stereo not drawn),0.42,1.05
Cc1cc(-c2ccccc2)nc2cc(C(N)=O)nn12,-0.36,0.285
CCOc1ccc(Cl)cc1S(=O)(=O)N1CCCCC1,0.635,0.09
CCCCn1ncc(O)c(Cl)c1=O,-0.225,1.91

SMILES,T3 sensor activation Q score [1],T2 sensor activation Q score [2]
O=C(Nc1ccc2c(c1)S(=O)(=O)c1cc(NC(=O)c3cccs3)ccc1-2)c1cccs1,-0.255,1.18
CN1CCN(S(=O)(=O)c2ccccc2)CC1,0.535,0.035
O=C(c1c(F)c(F)c(F)c(F)c1F)N1CCCCCC1,0.325,0.43
Cc1ccc(OCC(=O)N2CCN(c3ccccc3)CC2)cc1,0.75,0.46
CN(CCc1ccccc1)C1CCN(Cc2ccccc2)CC1,0.675,-0.34
O=C(Nc1ccccc1)Nc1ccc(F)c(Cl)c1,0.7,-0.69
Fc1ccccc1CN1CCOCC1,0.825,0.11
CCN(CC)S(=O)(=O)c1ccc(Oc2ccc([N+](=O)[O-])cc2)cc1,0.12,0.83
Cc1ccc(C(=O)NCCCc2ccccc2)cc1C,0.645,0.025
CCOc1ccc(CN(C)C2CCN(C)CC2)cc1,0.16,0.28
c1csc(-c2cnc3ccccc3n2)c1,1.2,-0.785
O=C1C(Nc2cccc(O)c2)=C(N2CCCCC2)C(=O)c2ccccc21,1.95,1.3
OCCOc1ccccc1OCCO,0.34,0.605
O=C(O)c1ccc(N2CCCCC2)cc1,-0.03,0.23
COc1ccc(N2C(=O)CC(N3CCOCC3)C2=O)cc1 (stereo not drawn),0.4,-0.645
[O-][n+]1onc2c1CCc1nnccc1-2,-0.52,0.165
CCCNC(=O)N1c2ccccc2Sc2ccccc21,0.05,-0.165

# A draw from above in order of formula weight, rising:
SMILES,T3 sensor activation Q score [1],T2 sensor activation Q score [2]
Cc1ccc(C(=O)NCCCc2ccccc2)cc1C,0.645,0.025
COc1ccc(N2C(=O)CC(N3CCOCC3)C2=O)cc1 (stereo not drawn),0.4,-0.645
O=C1C(Nc2cccc(O)c2)=C(N2CCCCC2)C(=O)c2ccccc21,1.95,1.3
